Assay results: patent publication US20250326796 (published 2025)
Plain letter strings leave the end groups untold. One purity is given for all peptides; the source may state it once.

Experiment: general procedure: Fmoc solid-phase peptide synthesis; Fmoc-Rink amid-MBHA Resin (degree of substitution=0.44 mmol/g; GL Biochem (Shanghai) Ltd.); HCTU/DIPEA
Details: whole synthesis, HPLC, dual wavelengths (214 nm and 254 nm), scale of the general procedure 1 g resin

Sequence	final purity (method not given)
NFNVAHGLAWSYYIGYLRLILPELQ	≥97.2%
IGYLRLILPELQARIRTYNQHYNNLLR	≥97.2%
LAWSYYIGYLRL	≥97.2%
NFNVAHGLAWSYYIG	≥97.2%
YLRLILPELQARIRTYNQHYNNLLR	≥97.2%
NFNVAHGLAWSYYIGYLRLILPELQARIRTYNQHYNNL	≥97.2%
NFNVAHGLAWSYYIGYLRLIL	≥97.2%
NFNVAHGLAWSYYIGYLRLILPELQARIRTYNQHYNNLL	≥97.2%
NFNVAHGLAWSYYIGYLRLILPELQARIRTYNQHYNNLLR	≥97.2%
NFNVAHGLAWSYYIGYLRLILPELQARIRTYN	≥97.2%
